Results reported in PubChem BioAssay AID2685 (National Center for Advancing Translational Sciences (NCATS), 2010).
This is one part of the list. Further columns of the screen follow, without active or inactive calls. The list favours compounds with an active or inconclusive main result. The note in brackets gives the kind of curve behind each potency; many fits are weak.

Assay: qHTS Assay for Lipid Storage Modulators in Drosophila S3 Cells;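 for cell number change: cells counted by Cell Tracker Red CMTPX staining in the red channel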
Settings: BODIPY lipid droplet fluorescence, 18-24 h; for cell number change: measured here: cell count max response, cells fed with added oleic acid
Summary of the method: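 Drosophila S3 cells got compounds at several concentrations plus oleic acid (400 uM solution). Laser-scanning cytometry with 488 nm excitation read lipid droplets at 500-530 nm and cells at 575-640 nm. Percent activity was relative to 20 uM Triacsin C.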

[1] = measured here: lipid fluorescence (Fed channel) AC50, cells fed with added oleic acid
[2] = measured here: cell number channel AC50, cells fed with added oleic acid

| SMILES | cell number change | AC50 [1] | AC50 [2] |
| --- | --- | --- | --- |
| CC(C)[C@H](NC(=O)c1ccccc1)C(=O)Nc1cccc(S(=O)(=O)N2CCOCC2)c1 | 12.2% | 16400 nM [falling, single point] |  |
| Cc1ccc(-c2nnc(N3CCN(CCO)CC3)c3ccccc23)cc1 | 29.4% | 29100 nM [rising, partial curve, poor fit] |  |
| CCOc1ccc(N2CC(O)=C(c3nc4ccccc4c(=O)[nH]3)C2=N)cc1 |  |  | 411 nM [rising, partial curve, poor fit] |
| COc1ccc(/C=N/N(C(C)=O)c2nc(-c3ccc(C)cc3)cs2)cc1 | -3.31% | 2060 nM [falling, partial curve] | 2060 nM [falling, partial curve, poor fit] |
| CCCc1cc(=O)oc2cc(OCC(=O)Nc3ccc(CN4CCOCC4)cc3)c(Cl)cc12 | 7.65% | 2060 nM [rising, partial curve] | 820 nM [rising, partial curve, poor fit] |
| O=C(COc1ccc(F)cc1)Nc1ccc2c(c1)OCCO2 | 34.7% | 20000 nM [rising, partial curve, poor fit] | 35500 nM [rising, single point] |
| CN1C(=O)/C(=C/c2ccc3c(c2)OCO3)N=C1c1ccccc1 | 5.39% | 1840 nM [rising, partial curve, poor fit] |  |
| NC(=O)c1cccc(N=Cc2cc(Cl)cc(Cl)c2O)c1 | 47.4% |  |  |
| O=C(CCS(=O)(=O)c1ccccc1Cl)Nc1ccc(S(=O)(=O)Nc2ncccn2)cc1 |  | 29100 nM [rising, single point] |  |
| COc1ccccc1NC(=O)COc1ccccc1 | 8.26% | 231 nM [rising, full curve, poor fit] |  |
| CCCCNC(=O)/C(C#N)=C/c1ccc2c(c1)OCCO2 | -20.1% | 20600 nM [falling, single point] |  |
| Cc1cc(C)n(C(=O)C(C)N2C(=O)c3ccccc3C2=O)n1 (configuration not stated) | 2.07% |  |  |
| COc1cc(C(=O)Nc2c(C)cc(C)cc2C)c(Br)c(OC)c1OC |  | 2060 nM [rising, partial curve] | 6510 nM [rising, single point] |
| Cc1cccc(S(=O)(=O)c2c(N)n(Cc3ccco3)c3nc4ccccc4nc23)c1 | 0.194% | 731 nM [rising, partial curve] |  |
| CCC(CC)CN1C(Nc2ccccc2)=NC[C@@H]1CC(C)C | -6.59% |  |  |
| CCc1ccccc1N1CSC2=C(C#N)C(c3cc(OC)c(OC)cc3OC)CC(=O)N2C1 (configuration not stated) | -19.9% |  |  |
| Cn1c(=O)c2c(-c3ccccc3)n(Cc3ccccn3)cc2n(C)c1=O | 0.5% |  | 130 nM [falling, full curve] |
| COc1ccc(C)cc1S(=O)(=O)Nc1ccc2c(c1)N(C(C)=O)CCC2 | -20.9% |  | 2060 nM [rising, partial curve, poor fit] |
| CCN(CC(=O)NCC(=O)Nc1ccc(Br)cc1C)Cc1ccccc1 |  | 1030 nM [rising, partial curve] | 1030 nM [rising, partial curve] |
| Cc1cc(=O)[nH]c2c(N=Nc3ccc(O)cc3)c(N)nn12 | 3.82% | 731 nM [rising, single point] |  |

An excerpt from further up:

| SMILES | cell number change | AC50 [1] | AC50 [2] |
| --- | --- | --- | --- |
| COc1cc(C(=O)Nc2c(C)cc(C)cc2C)c(Br)c(OC)c1OC |  | 2060 nM [rising, partial curve] | 6510 nM [rising, single point] |
| Cc1cccc(S(=O)(=O)c2c(N)n(Cc3ccco3)c3nc4ccccc4nc23)c1 | 0.194% | 731 nM [rising, partial curve] |  |

Continued:

| SMILES | cell number change | AC50 [1] | AC50 [2] |
| --- | --- | --- | --- |
| COc1ccc(-n2c(-c3ccc(Br)cc3)c[n+]3c2CCc2ccccc2-3)cc1 | -72.9% | 9200 nM [falling, partial curve, poor fit] | 11600 nM [falling, partial curve] |
| Cc1ccc(-n2c(-c3ccc(Cl)cc3Cl)n[nH]c2=S)cc1 | 14.7% |  |  |
| CCOC(=O)C(NC(=O)c1ccccc1)(N1CCCC1=O)C(F)(F)F (configuration not stated) | -7.24% | 73.1 nM [rising, full curve, poor fit] |  |
| CCC(Oc1ccccc1)C(=O)Nc1ccc(S(=O)(=O)Nc2cc(C)on2)cc1 (configuration not stated) | 24.4% | 103 nM [falling, full curve, poor fit] |  |
| C=C(C)C1CCC(C)=C1COC(=O)Nc1ccccc1 (configuration not stated) | -42.5% | 11600 nM [falling, partial curve, poor fit] |  |
| O=C(O)C1CCCN(C(=O)NCc2ccccc2)C1 (configuration not stated) | -50.7% | 29100 nM [falling, single point] | 20600 nM [falling, partial curve] |
| CC(=O)NN1C(=O)/C(=C\c2ccc(O)cc2)SC1=S | 4.77% | 651 nM [rising, single point] |  |
| CC(C)C(c1nnnn1C1CCCC1)N1CCCc2ccccc21 (configuration not stated) | -23.5% | 29100 nM [falling, single point] |  |
| CCOC(=O)C1=C(CSc2nc(-c3ccccc3)ccc2C#N)OC(N)=C(C#N)C1c1ccccc1 (configuration not stated) |  | 2310 nM [rising, partial curve] | 1640 nM [rising, partial curve] |
| COC(=O)c1c(-n2c(C)cc(C=O)c2C)sc2c1CCCC2 | -24.5% | 3660 nM [falling, full curve] | 3660 nM [falling, full curve, poor fit] |
| COc1cc2c(cc1OC)CN(CC(=O)Nc1ccc3c(c1)OCO3)CC2 | -5.57% | 820 nM [falling, full curve] |  |
| O=C(COc1coc(CN2CCc3ccccc32)cc1=O)NCCc1ccccc1 |  |  | 1840 nM [rising, partial curve, poor fit] |
| O=C(Oc1ccc2ccc(=O)oc2c1)c1cccs1 | -48.3% | 6510 nM [falling, single point] | 9200 nM [falling, partial curve, poor fit] |
| COc1ccc(/C=N/OCC(=O)N=Nc2c(O)[nH]c3ccc(Br)cc23)cc1OC | -53.1% | 18400 nM [falling, single point] | 820 nM [falling, partial curve] |
| Cc1ccc(C(=O)Nc2ccc(Oc3ccc(C(=O)O)c(C(=O)O)c3)cc2)cc1C | 13.9% |  |  |
| Cc1ccc2c(c1)[nH]c1c(=O)n(CCN3CCNCC3)cnc12 | 0.559% | 920 nM [falling, partial curve] |  |
| Cc1ccc(NC(=O)Cn2c(=O)oc3ccccc32)c(C)c1 | -5.87% |  |  |
| O=C(CSc1nc2nc3c(cc2c(=O)n1-c1ccccc1)CCCC3)Nc1cccc2ccccc12 | 11.7% | 7310 nM [rising, single point] |  |
| Cc1cc(=O)[nH]c(SCC(=O)Nc2c(C)n(C)n(-c3ccccc3)c2=O)c1C#N | 4.73% | 517 nM [falling, full curve, poor fit] |  |
| O=C(COc1ccc(Br)cc1)NCCN1CCCC1 | -2.19% |  |  |

| SMILES | cell number change | AC50 [1] | AC50 [2] |
| --- | --- | --- | --- |
| Cc1cccc(OCCCCCNCCO)c1 |  | 5.17 nM [falling, full curve, poor fit] |  |
| O=C(CCc1c[nH]c2ccccc12)OCc1cccc([N+](=O)[O-])c1 |  | 6510 nM [falling, single point] |  |
| CC1CCCCN1CCNC(=O)C1CCCN(S(=O)(=O)c2cccc3nsnc23)C1 (configuration not stated) | -22.2% | 29100 nM [rising, single point] |  |
| CC/C(=N\NC(=O)C1CCCC1)c1ccc(Br)cc1 |  | 29100 nM [rising, single point] |  |
| COc1ccc(C(=O)Nc2ccccc2C(=O)NCc2cccnc2)cc1OC | -30.1% |  | 65.1 nM [falling, full curve, poor fit] |
| O=C(NC1CCCN(Cc2ccc(Cl)cc2)C1)c1c(F)cccc1F (configuration not stated) | -3.15% |  |  |
| Cc1sc(NC(=O)CSc2nnc(COc3ccccc3)n2C)c(C#N)c1C | -27.1% | 1840 nM [falling, partial curve] |  |
| C#CCNC(=O)/C=C/c1ccc(OC)cc1 | 19.6% | 9200 nM [rising, partial curve] |  |
| CC(=C1C(=O)c2ccccc2C1=O)N1CCN(c2ccccn2)CC1 | 12% |  |  |
| CCOc1ccccc1-c1ccc(C(=O)NCc2ccccc2)o1 | 3.74% | 9200 nM [rising, partial curve] |  |
| COCC(C)n1c(C)cc(C(=O)CN2C(=O)NC(Cc3c[nH]c4ccccc34)C2=O)c1C (configuration not stated) | 102% | 1300 nM [rising, partial curve] | 1460 nM [rising, full curve] |
| COc1ccc(CC(=O)n2nc(-c3ccccc3)nc2NCc2ccco2)cc1 | 95.4% |  | 29100 nM [rising, single point] |
| Cc1ccc(C)c(N2CCN(C(=O)CCCOc3cc(=O)n(C)c4ccccc34)CC2)c1 | -4.98% | 820 nM [rising, partial curve, poor fit] |  |
| CN1C(=O)c2ccc(NC(=O)c3cccc(N4C(=O)CCC4=O)c3)cc2C1=O | 0.427% | 398 nM [falling, single point] |  |
| Cc1c(NC(=O)CC(C)C)c(=O)n(-c2ccccc2)n1C | 10.7% | 73.1 nM [falling, full curve, poor fit] |  |
| O=C(NN1CCOCC1)c1ccccc1Br | 2.89% | 29100 nM [rising, single point] |  |
| COC(=O)c1ccc(NC(=O)Nc2ccc(C)cc2)cc1 | 92.1% | 1840 nM [rising, partial curve] | 2310 nM [rising, partial curve] |
| COc1ccccc1-c1sc2cc3c(cc2c1C#Cc1ccccn1)OCO3 | 16.9% | 7.31 nM [rising, full curve, poor fit] |  |
| O=C(NCCN1CCOCC1)/C(=C\c1ccc(Br)cc1)NC(=O)c1cccs1 | 19.4% | 1840 nM [rising, partial curve] |  |
